Source: paper PMC4340400
No constants are given. Whether binding was seen depends on the method and setting. Binding seen in cells or lysates may run through a third protein. Some binding calls cover weakened binding; strength is not graded here.

T1: syntaxin 11 (human (endogenous in platelets)) (UniProt O75558)
T1 sequence: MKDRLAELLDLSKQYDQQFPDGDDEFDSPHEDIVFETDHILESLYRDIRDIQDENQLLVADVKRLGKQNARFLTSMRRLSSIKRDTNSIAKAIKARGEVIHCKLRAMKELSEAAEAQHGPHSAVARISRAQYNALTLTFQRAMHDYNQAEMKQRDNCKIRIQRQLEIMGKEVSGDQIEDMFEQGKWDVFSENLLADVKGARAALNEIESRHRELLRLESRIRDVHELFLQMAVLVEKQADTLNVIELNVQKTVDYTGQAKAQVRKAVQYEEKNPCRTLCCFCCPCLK

T2: VAMP8 (human (endogenous in platelets)), Q9BV40
T2 chain: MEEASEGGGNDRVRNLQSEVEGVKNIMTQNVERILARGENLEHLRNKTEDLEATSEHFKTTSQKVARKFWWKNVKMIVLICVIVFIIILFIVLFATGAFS


Tests used:
Assay in all cases: co-IP; double-washed human platelets, resting or activated with 1 unit/ml thrombin; lysis buffer (2x) 40 mM Tris-HCl pH 7.5, 150 mM NaCl, 2 mM EDTA, 2 mM EGTA, 2% Triton X-100, 1% sodium deoxycholate; 2 ug primary antibody or nonspecific IgG overnight at 4 C; Protein A or G beads; Western blot
[1] = target: SNAP23 (human (endogenous in platelets)) (UniProt O00161)
[2] = target: T1, syntaxin 11 (human (endogenous in platelets))
[3] = target: T2, VAMP8 (human (endogenous in …)); details: remark: other sources report otherwise

| Binder | binding [1] | binding [2] | binding [3] |
| --- | --- | --- | --- |
| syntaxin 8 (protein, UniProt Q9UNK0 1-236) MAPDPWFSTYDSTCQIAQEIAEKIQQRNQYERKGEKAPKLTVTIRALLQNLKEKIALLKDLLLRAVSTHQITQLEGDRRQNLLDDLVTRERLLLASFKNEGAEPDLIRSSLMSEEAKRGAPNPWLFEEPEETRGLGFDEIRQQQQKIIQEQDAGLDALSSIISRQKQMGQEIGNELDEQNEIIDDLANLVENTDEKLRNETRRVNMVDRKSASCGMIMVILLLLVAIVVVAVWPTN | no binding | binds |  |
| syntaxin 8, Q9UNK0 1-236 (protein) MAPDPWFSTYDSTCQIAQEIAEKIQQRNQYERKGEKAPKLTVTIRALLQNLKEKIALLKDLLLRAVSTHQITQLEGDRRQNLLDDLVTRERLLLASFKNEGAEPDLIRSSLMSEEAKRGAPNPWLFEEPEETRGLGFDEIRQQQQKIIQEQDAGLDALSSIISRQKQMGQEIGNELDEQNEIIDDLANLVENTDEKLRNETRRVNMVDRKSASCGMIMVILLLLVAIVVVAVWPTN |  |  | no binding |
